## Primary screen of a compound library

Chains of the proteins cited; added tags and fusions are not shown.
UniProt E9BF75, entry or part of it: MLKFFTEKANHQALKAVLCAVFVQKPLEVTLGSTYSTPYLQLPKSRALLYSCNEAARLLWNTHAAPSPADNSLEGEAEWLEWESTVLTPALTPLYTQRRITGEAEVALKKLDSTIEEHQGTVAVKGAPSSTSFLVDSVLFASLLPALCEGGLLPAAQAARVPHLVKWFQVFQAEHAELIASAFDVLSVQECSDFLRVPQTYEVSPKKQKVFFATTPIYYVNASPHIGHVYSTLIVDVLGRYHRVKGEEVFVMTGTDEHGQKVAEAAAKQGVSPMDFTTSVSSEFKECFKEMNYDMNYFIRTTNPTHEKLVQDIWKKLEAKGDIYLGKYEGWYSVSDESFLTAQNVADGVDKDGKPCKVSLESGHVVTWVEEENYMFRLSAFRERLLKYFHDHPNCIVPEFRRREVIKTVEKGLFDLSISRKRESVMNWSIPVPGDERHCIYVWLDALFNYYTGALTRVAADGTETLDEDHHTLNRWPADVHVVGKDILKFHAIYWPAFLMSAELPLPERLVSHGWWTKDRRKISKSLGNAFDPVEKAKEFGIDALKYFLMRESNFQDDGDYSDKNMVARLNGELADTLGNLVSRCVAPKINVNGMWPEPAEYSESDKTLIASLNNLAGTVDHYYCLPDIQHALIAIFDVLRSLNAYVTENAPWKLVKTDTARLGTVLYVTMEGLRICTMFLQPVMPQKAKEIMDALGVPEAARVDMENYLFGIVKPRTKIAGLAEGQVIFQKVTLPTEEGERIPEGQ

Measurements from “University of Dundee, Small-Polar-MMV Screening Library” (2021), ChEMBL document CHEMBL3988442.

A: 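Assay on Mycobacterium tuberculosis, filed only as a heat shock assay from Cornell; the read-out is not stated. The concentration is filed as 10 mM, unlikely as a test dose, so the dose is not known. The record gives no direction; compounds that gave an IC50 in retests scored well above the rest, so higher reads as stronger inhibition. Of about 69,000 compounds tested this way, about 930 (1.4%) reached 50% or more in at least one test.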
B: 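Primary screen of methionyl-tRNA synthetase; the read-out is not stated. Target: Methionyl-tRNA synthetase (putative), Leishmania donovani (UniProt E9BF75). The test concentration is not given. Values are per cent inhibition. About 68,000 compounds were tested under these conditions; 0.035% (about 24) showed 50% or more at least once.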
C: 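Whole-cell assay for inhibitors of Mycobacterium tuberculosis growth, labelled Cornell in the record; the read-out is not stated. The concentration is filed as 10 mM, unlikely as a test dose, so the dose is not known. The record gives no direction; compounds strong in two other growth screens of this library score well above the rest, so higher reads as stronger inhibition. Of about 53,000 compounds tested this way, about 900 (1.7%) reached 50% or more in at least one test.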

Results are percentages, as filed. How 0% and 100% were set is not recorded. Most values in the screen are low, and negative values occur. Compounds were drawn at random from those tested, without regard to their results. A dash means the value is not listed here; it may have been measured.

| # | compound | A | B | C |
|---|---|---|---|---|
| 1 | `O=C(O)C1(Cc2ccc(F)cc2F)CCCN(Cc2ccncc2)C1` (stereo not shown) | 6.946% | 12.71% | - |
| 2 | `Cc1cc(NC(=O)C(C)N2CCN(c3nc(C)ns3)CC2)on1` (stereo not shown) | 6.548% | -2.611% | -2.166% |
| 3 | `COc1cccc(CNC(Cc2cccs2)c2nc(C)c(C)s2)c1OC` (stereo not shown) | - | 7.717% | - |
| 4 | `O=c1c(S(=O)(=O)N2CCCCC2)cccn1Cc1ccccc1Cl` | -2.274% | 6.475% | 9.959% |
| 5 | `N#Cc1ccc(N2CCC3(CCC(=O)N3Cc3ccncc3)CC2)nc1.O=C(O)C(F)(F)F.O=C(O)C(F)(F)F` | 4.39% | - | 9.828% |
| 6 | `Cc1ccc(N2CCC3(CC2)CC(OCC(C)C)C3)nn1.O=C(O)C(F)(F)F` | 3.994% | - | -1.726% |
| 7 | `Cn1ncc2c1C(COCC1CC1)CN(Cc1cccnc1)C2` (stereo not shown) | 16.19% | 13.48% | -13.22% |
| 8 | `COc1c(Cl)cccc1NCc1csc(NC(C)=O)n1` | 1.396% | 16.4% | - |
| 9 | `COc1c(C)cnc(CN(C)C2CCCCC2)c1C` | 25.35% | 8.732% | -28.78% |
| 10 | `O=C(Cn1cnc2ccccc2c1=O)Nc1cc(C2CC2)n[nH]1` | -12.05% | 5.801% | - |
| 11 | `O=C(O)C(F)(F)F.[H][C@@]12CCN(CC3CCC3)[C@]1([H])CC[C@@H](C(=O)NCc1cccs1)O2` | -21.89% | - | 15.99% |
| 12 | `Cc1csc2ncnc(N3CCCC(Cn4cc(C(C)(C)O)nn4)C3)c12` (stereo not shown) | -7.228% | 10.64% | 7.265% |
| 13 | `COCCN(C)C[C@@H]1CN(c2nnc(C(C)C)s2)C[C@@H]1CO` | -2.003% | 12.54% | 10.99% |
| 14 | `c1cnc(N2CCC(c3n[nH]c4ncccc34)C2)nc1` (stereo not shown) | -8.956% | 9.176% | - |
| 15 | `COCCCN1CCN(C(=O)C(c2cccc(F)c2)N(C)C)CC1` (stereo not shown) | 2.616% | 12.46% | 8.925% |
| 16 | `CN(CCCOc1ccccc1)Cc1nccn1C` | -13.65% | 12.24% | 19.26% |
| 17 | `COc1ccccc1C(NC(=O)NC1CC1)c1noc(C)n1` (stereo not shown) | 3.547% | 21.27% | - |
| 18 | `Fc1ccc(-c2n[nH]cc2CNCCn2cccn2)cc1` | 11.69% | -15.14% | 2.677% |
| 19 | `CCc1ccc(NC(=O)c2cnc(N3CCCC3)nc2C)cc1` | 1.197% | 17.31% | 37.95% |
| 20 | `O=S(=O)(NCCc1ccccc1C(F)(F)F)N1CCOCC1` | -14.21% | 18.05% | -10.07% |
| 21 | `CCN1CC(C(=O)NC(C)(C)CNC(=O)OC(C)(C)C)CC1=O` (stereo not shown) | -5.263% | 13.75% | 11% |
| 22 | `CCc1nc(C2CCCN2C(=O)c2nccnc2N)no1` (stereo not shown) | -27.79% | 6.748% | 5.033% |
| 23 | `Cc1nnc2n1CCN(CCC(=O)Nc1sccc1C#N)C2` | -14% | 17.32% | 26.2% |
| 24 | `CC(C)Oc1ccccc1OCCN1C(=O)CCNC1=O` | 6.33% | 10.51% | -44.26% |
| 25 | `N#Cc1ccc(C(=O)NS(=O)(=O)c2ccc(C#N)c(Cl)c2)cc1` | -1.491% | 22.03% | 8.264% |
| 26 | `Cc1noc(C)c1-c1ccc(C2CCCN2C(=O)c2cccnc2)nc1` (stereo not shown) | -11.31% | 16.08% | -9.778% |
| 27 | `O=C(c1cc(C2CC2)on1)N1CCC(Oc2ncccc2Cl)CC1` | 14.63% | 8.633% | 82.03% |
| 28 | `CCc1nsc(N2CCCN(C(=O)COc3ccccc3)CC2)n1` | 11.77% | 7.711% | 7.451% |
| 29 | `CSCCC(NC(N)=O)C(=O)Nc1ccc(-n2cccn2)nc1` (stereo not shown) | -72.24% | 17.22% | - |
| 30 | `CCc1oc(C(=O)N(C)Cc2ccncc2)cc1CN(CC)CC` | 5.221% | 7.527% | 3.07% |
| 31 | `Cc1ccc(C(=O)N2CCCS2(=O)=O)cc1Cl` | -1.834% | 14.69% | - |
| 32 | `Cn1nccc1NC(=O)c1cccc(CN2C[C@H]3CC[C@@H](C2)N3)c1` | - | 6.977% | - |
| 33 | `Cn1c(Cn2ccnc2)nnc1C1CCN(Cc2cccnc2N)CC1` | 7.074% | 15.04% | 15.09% |
| 34 | `CC(=O)N1CCCN(CCCSCc2ccccc2)CC1` | -31.84% | -3.014% | - |
| 35 | `Cc1sc2c(C3CCNCC3)nc(Nc3cccc(F)c3)n2c1C` | - | 9.346% | - |
| 36 | `CCS(=O)(=O)c1ccccc1N1CCC(N)CC1` | -7.916% | 19.55% | - |
| 37 | `CC(=O)N1CCN(c2cc(C3CN(C)CCO3)nc(C)n2)CC1` (stereo not shown) | 6.088% | 17.47% | -30.31% |
| 38 | `CN(C)C1CCN(C(=O)NCc2ccc(Cn3cncn3)cc2)CC1` | -3.82% | 7.609% | - |
| 39 | `Cc1cc(F)ccc1OC1(C(=O)O)CCN(Cc2c[nH]cn2)CC1` | -0.7865% | 12.33% | 21.8% |
| 40 | `c1csc(CN2CCc3ncnc(C4CCOC4)c3CC2)c1` (stereo not shown) | - | 10.1% | - |
| 41 | `CC(C)CN1Cc2c(C(=O)NC3CC3)ncn2-c2ccccc2S1(=O)=O` | 6.993% | 10.48% | 10.36% |
| 42 | `CS(=O)(=O)NC[C@@H]1OC[C@H]2CN(C(=O)c3ccc[nH]3)CC[C@H]21` | - | -170.3% | - |
| 43 | `CN(C)C(=O)C1CCc2nnc(C(C)(C)C)n21` (stereo not shown) | 1.61% | 7.429% | - |
| 44 | `CCN(CC1COc2ccccc2O1)C(=O)NCCCn1cncn1` (stereo not shown) | -19.27% | 21.86% | - |
| 45 | `O=C(O)C(F)(F)F.[H][C@@]12COC[C@]1(c1nc(C)no1)CN(Cc1cc(C)on1)C2` | -16.24% | - | -56.88% |
| 46 | `O=C(O)C(F)(F)F.O=C(O)C(F)(F)F.c1ccc(CN2CCCn3nnc(COc4ccccn4)c3C2)nc1` | 4.534% | - | -17.25% |
| 47 | `CC(=O)N1CCC(c2ccnc(Nc3cc(C(F)(F)F)ccn3)n2)C1` (stereo not shown) | -39.68% | 6.962% | -21.9% |
| 48 | `NC(=O)C1(CNCc2csc(-c3cccs3)n2)CCOCC1` | -32.96% | -1.282% | 19.24% |
| 49 | `CCc1ccc(NC(=O)C(C)Nc2cccc3c2OCCO3)cc1` (stereo not shown) | 11.78% | 16.71% | 22.95% |
| 50 | `CCn1cc(CN2CCN(CC(O)c3cc(C)ccc3C)CC2)c(C)n1` (stereo not shown) | -19.6% | 13.55% | 9.019% |
| 51 | `O=C(O)C(F)(F)F.[H][C@]12CCC[C@@]1(COCc1csc(C)n1)CN(Cc1cc(C)on1)C2` | -7.979% | - | -16.11% |
| 52 | `O=C(O)C(F)(F)F.[H][C@@]12CCCO[C@]1([H])[C@H](NC(=O)C1CC1)CN(Cc1ccccc1)C2` | -8.331% | - | 13.01% |
| 53 | `Cc1nc(C)c(C(=O)NCCNC(=O)Cc2ccccc2)s1` | -6.449% | 13.02% | 18.11% |